# Source: the supplement of paper PMC6411743
# Chains of the proteins cited; added tags and fusions are not shown. Lines headed by an entry give the natural chain unless they say otherwise; changes in a name come on top.
# UniProt P11586, whole entry: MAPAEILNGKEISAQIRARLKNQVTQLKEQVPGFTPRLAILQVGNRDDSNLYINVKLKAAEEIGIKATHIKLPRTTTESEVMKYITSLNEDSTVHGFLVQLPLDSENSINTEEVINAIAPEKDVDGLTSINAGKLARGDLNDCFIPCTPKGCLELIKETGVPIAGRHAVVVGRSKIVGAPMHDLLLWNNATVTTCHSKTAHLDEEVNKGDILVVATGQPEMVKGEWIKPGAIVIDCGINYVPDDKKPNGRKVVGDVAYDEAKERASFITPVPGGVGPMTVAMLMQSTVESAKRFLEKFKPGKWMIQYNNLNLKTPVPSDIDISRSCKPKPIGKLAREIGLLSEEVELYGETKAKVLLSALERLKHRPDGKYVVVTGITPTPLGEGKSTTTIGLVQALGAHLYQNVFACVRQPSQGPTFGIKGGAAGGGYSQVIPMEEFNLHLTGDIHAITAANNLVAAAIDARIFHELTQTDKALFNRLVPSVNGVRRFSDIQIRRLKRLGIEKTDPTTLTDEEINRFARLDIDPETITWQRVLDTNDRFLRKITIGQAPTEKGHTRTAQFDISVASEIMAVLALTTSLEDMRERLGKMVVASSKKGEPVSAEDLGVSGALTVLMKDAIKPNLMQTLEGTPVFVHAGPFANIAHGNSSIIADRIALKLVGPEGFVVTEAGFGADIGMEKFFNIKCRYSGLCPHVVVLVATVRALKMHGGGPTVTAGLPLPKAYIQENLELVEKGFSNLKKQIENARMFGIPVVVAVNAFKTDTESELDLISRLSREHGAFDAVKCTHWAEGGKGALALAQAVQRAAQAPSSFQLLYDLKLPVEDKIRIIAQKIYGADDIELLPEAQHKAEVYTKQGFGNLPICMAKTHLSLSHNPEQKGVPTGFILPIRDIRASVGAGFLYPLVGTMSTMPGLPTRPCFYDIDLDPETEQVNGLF
# UniProt P11233: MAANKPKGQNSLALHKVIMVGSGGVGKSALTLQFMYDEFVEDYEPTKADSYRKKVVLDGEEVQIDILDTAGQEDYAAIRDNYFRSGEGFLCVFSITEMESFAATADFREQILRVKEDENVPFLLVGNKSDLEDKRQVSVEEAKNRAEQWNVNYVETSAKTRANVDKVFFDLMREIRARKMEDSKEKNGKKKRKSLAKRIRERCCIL
# UniProt P17026: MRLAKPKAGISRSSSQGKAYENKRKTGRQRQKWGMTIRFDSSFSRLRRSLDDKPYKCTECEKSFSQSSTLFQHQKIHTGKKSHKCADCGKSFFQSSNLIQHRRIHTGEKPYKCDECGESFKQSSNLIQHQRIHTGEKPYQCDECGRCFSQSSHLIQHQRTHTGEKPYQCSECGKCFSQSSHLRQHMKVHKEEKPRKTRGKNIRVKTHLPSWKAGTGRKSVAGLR
# UniProt P09669, whole entry: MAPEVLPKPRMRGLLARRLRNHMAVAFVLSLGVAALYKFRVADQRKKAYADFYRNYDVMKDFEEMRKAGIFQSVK
# UniProt P18206: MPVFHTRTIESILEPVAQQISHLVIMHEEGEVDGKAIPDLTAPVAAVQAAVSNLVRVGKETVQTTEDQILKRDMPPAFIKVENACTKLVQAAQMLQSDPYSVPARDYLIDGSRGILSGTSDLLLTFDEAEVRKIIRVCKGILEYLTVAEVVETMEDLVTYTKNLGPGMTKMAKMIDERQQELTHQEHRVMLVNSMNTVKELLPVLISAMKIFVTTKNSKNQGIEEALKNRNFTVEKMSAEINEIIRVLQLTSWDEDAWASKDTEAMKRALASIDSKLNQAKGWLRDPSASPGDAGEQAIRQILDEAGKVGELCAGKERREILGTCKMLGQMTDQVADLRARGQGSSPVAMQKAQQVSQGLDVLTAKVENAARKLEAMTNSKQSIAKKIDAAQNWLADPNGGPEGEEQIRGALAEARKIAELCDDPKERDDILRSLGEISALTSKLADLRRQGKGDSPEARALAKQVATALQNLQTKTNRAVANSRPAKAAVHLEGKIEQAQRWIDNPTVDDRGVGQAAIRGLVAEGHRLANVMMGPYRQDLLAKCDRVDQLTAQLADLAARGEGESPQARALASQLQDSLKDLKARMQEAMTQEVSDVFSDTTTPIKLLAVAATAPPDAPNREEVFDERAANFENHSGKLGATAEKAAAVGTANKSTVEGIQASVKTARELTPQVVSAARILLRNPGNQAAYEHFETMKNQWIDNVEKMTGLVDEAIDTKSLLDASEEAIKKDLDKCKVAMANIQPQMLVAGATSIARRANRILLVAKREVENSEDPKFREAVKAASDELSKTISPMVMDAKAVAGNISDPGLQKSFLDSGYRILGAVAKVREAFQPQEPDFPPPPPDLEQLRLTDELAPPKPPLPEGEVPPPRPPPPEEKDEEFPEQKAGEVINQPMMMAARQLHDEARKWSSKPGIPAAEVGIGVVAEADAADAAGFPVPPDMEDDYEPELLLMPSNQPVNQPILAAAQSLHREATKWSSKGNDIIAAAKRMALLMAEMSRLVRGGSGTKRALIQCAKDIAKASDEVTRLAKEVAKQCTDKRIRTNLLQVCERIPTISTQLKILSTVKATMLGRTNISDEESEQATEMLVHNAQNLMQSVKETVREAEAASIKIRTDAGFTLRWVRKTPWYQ
# UniProt P11216: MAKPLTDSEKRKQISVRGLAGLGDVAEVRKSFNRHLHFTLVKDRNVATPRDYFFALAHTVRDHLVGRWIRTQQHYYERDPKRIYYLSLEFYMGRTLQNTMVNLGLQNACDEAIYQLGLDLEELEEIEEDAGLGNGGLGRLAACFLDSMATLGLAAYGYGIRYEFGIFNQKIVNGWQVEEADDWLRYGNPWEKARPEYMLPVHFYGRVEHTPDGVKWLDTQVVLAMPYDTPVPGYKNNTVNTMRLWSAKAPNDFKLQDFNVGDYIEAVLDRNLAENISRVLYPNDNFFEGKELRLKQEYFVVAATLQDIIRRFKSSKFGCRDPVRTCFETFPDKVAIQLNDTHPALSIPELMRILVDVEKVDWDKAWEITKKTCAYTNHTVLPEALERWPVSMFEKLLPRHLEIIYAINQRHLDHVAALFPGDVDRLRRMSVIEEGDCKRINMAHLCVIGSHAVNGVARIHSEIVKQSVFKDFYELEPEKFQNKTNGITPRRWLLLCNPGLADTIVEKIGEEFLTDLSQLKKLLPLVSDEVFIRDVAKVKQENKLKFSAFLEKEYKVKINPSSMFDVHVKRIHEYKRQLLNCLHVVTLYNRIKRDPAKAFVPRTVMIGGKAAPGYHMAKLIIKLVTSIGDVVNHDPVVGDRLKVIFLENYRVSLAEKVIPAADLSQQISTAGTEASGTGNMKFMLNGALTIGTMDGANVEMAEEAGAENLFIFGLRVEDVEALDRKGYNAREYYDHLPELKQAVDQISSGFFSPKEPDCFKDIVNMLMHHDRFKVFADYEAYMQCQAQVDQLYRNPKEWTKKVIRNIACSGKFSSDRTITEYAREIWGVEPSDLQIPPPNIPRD
# UniProt P16930: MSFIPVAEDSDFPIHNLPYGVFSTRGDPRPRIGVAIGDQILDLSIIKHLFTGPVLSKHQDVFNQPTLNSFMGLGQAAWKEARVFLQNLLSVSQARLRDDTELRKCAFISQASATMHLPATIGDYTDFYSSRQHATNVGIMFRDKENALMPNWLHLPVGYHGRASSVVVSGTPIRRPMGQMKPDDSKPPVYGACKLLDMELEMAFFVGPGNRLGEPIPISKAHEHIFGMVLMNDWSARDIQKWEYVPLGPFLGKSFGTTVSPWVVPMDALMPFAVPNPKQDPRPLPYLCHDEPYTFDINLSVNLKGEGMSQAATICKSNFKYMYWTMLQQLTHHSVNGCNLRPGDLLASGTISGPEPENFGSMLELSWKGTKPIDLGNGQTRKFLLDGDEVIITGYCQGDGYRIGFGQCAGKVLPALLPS
# UniProt P07919: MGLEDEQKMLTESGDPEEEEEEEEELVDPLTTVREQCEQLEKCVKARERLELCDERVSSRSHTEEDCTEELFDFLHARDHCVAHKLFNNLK
# UniProt P23526: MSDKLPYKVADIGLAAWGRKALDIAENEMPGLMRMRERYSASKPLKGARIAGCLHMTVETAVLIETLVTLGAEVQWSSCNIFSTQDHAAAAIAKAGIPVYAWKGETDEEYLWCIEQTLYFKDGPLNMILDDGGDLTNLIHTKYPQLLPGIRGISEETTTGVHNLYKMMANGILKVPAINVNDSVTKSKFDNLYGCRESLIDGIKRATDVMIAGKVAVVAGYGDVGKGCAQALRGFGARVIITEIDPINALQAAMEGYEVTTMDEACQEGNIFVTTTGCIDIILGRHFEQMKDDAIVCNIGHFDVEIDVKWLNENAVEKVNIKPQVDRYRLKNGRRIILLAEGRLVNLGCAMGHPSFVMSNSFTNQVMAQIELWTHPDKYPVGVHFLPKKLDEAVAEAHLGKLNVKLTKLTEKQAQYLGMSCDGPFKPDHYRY
# UniProt P07437, whole entry: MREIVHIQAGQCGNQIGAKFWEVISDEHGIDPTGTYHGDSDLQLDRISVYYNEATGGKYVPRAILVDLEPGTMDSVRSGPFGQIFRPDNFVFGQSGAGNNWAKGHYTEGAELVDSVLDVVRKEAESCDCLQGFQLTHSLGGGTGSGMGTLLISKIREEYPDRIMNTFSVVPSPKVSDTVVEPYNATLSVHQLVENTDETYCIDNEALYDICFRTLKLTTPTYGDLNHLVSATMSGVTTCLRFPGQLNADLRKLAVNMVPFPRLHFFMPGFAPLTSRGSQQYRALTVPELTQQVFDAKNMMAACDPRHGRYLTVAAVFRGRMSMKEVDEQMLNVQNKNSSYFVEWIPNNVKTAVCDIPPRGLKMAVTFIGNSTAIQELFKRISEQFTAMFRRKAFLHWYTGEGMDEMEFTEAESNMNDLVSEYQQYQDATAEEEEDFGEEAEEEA
# UniProt P23368: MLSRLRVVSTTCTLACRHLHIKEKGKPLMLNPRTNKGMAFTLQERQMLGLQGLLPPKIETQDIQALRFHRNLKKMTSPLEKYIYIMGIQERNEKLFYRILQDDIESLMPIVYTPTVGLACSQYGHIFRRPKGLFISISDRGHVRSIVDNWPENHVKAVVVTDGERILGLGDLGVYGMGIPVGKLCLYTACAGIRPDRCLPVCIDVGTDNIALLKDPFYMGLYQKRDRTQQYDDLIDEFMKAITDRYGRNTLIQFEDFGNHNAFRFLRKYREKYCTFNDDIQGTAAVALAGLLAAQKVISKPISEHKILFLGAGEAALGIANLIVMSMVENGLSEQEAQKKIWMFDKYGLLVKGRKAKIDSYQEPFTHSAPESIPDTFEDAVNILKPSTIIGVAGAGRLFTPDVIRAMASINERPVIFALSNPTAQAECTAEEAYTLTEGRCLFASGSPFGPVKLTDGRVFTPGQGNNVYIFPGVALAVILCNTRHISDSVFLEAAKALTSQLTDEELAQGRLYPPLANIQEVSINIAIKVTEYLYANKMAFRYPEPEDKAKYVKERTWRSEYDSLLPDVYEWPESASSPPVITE
# UniProt P17812: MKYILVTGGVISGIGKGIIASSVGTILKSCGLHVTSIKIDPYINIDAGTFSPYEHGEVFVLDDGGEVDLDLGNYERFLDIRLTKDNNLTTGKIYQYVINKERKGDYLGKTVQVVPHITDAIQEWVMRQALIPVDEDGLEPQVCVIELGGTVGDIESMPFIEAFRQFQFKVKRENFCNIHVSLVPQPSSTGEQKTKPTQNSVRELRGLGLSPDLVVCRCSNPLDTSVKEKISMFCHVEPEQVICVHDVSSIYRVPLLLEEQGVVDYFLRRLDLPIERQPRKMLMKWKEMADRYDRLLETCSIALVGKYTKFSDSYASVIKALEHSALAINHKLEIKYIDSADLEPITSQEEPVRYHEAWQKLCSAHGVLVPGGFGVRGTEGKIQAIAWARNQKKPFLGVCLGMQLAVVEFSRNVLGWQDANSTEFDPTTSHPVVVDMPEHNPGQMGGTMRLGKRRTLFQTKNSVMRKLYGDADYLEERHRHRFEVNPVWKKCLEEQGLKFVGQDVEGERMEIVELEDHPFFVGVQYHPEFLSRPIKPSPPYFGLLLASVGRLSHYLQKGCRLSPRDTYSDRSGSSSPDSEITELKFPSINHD
# UniProt P07738: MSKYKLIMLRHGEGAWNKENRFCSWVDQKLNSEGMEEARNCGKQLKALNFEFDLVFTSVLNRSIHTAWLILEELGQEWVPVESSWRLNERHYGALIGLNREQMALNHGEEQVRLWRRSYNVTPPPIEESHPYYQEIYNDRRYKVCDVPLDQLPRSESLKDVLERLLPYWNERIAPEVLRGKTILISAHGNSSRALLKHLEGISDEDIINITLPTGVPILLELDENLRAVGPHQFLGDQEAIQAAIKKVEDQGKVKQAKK
# UniProt P20963, whole entry: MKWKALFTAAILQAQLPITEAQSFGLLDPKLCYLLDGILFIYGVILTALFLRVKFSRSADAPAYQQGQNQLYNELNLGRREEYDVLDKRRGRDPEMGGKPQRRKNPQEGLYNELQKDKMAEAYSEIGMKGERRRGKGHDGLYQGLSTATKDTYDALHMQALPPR
# UniProt P09382, whole entry: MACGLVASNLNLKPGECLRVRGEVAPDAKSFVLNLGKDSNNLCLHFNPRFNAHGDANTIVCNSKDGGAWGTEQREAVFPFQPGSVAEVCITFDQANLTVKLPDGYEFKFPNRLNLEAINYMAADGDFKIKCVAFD
# ± gives the standard deviation of the averaged measurements. The list shows a part of the results.
# Compound: Nc1nc2c(ncn2[C@@H]2O[C@H](COP(=O)(O)OP(=O)(O)OP(=O)(O)O)[C@@H](O)[C@H]2O)c(=O)[nH]1 [guanosine triphosphate]
# Assay: NP40-soluble protein abundance relative to vehicle (solubility fold change) (ratio); higher = more soluble protein in presence of GTP
# In short: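 Crude Jurkat lysate, prepared by Dounce homogenisation, was exposed to eight concentrations from 0.1 to 10 mM for 10 min at room temperature and then 3 min at 37 °C. Solubilisation used 0.8% NP40 with benzonase for 60 min at 4 °C, followed by ultracentrifugation and TMT labelling of the supernatant for LC-MS/MS. After vsn normalisation of intensities, each value is the fold change against the detergent-processed vehicle within each replicate, across three independent experiments.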
Target,NP40-soluble protein abundance (concentration: 0.1mM),NP40-soluble protein abundance (concentration: 0.5mM),NP40-soluble protein abundance (concentration: 1mM),NP40-soluble protein abundance (concentration: 2mM),NP40-soluble protein abundance (concentration: 4mM),NP40-soluble protein abundance (concentration: 6mM),NP40-soluble protein abundance (concentration: 8mM),NP40-soluble protein abundance (concentration: 10mM)
UniProt P11586 and related entries,0.9571 ± 0.0065,0.977 ± 0.025,0.9434 ± 0.0062,0.9157 ± 0.0038,0.9095 ± 0.0076,0.9153 ± 0.0059,0.895 ± 0.012,0.861 ± 0.023
MCM3 (UniProt P25205),0.998 ± 0.035,1.04 ± 0.06,0.986 ± 0.074,1.01 ± 0.11,1.02 ± 0.11,1.01 ± 0.1,0.978 ± 0.076,0.966 ± 0.059
PEPD (UniProt P12955),1.1 ± 0.12,1.13 ± 0.11,0.974 ± 0.067,0.989 ± 0.11,0.969 ± 0.092,0.941 ± 0.062,0.893 ± 0.062,0.853 ± 0.099
RALA (UniProt P11233),0.9 ± 0.049,0.964 ± 0.021,0.932 ± 0.044,0.895 ± 0.04,0.858 ± 0.08,0.915 ± 0.052,0.883 ± 0.031,0.88 ± 0.05
RAB3A (UniProt P20336),0.98 ± 0.12,0.896 ± 0.087,0.934 ± 0.12,0.873 ± 0.12,0.962 ± 0.14,0.872 ± 0.12,0.917 ± 0.14,0.863 ± 0.15
ZNF22 (UniProt P17026),0.981 ± 0.014,1.11 ± 0.11,1.09 ± 0.065,1.06 ± 0.033,1.1 ± 0.012,1.1 ± 0.1,1.2 ± 0.059,1.34 ± 0.13
UniProt P26641 and related entries,1.01 ± 0.046,1.08 ± 0.055,1.03 ± 0.06,1 ± 0.07,1 ± 0.045,1.03 ± 0.08,1.02 ± 0.082,0.969 ± 0.081
RFX1 (UniProt P22670),1 ± 0.052,1.02 ± 0.061,0.981 ± 0.13,0.99 ± 0.086,0.975 ± 0.094,0.968 ± 0.11,0.965 ± 0.057,0.978 ± 0.068
COX6C (UniProt P09669),0.927 ± 0.1,0.834 ± 0.12,0.988 ± 0.2,0.897 ± 0.15,0.88 ± 0.16,0.852 ± 0.16,0.745 ± 0.1,0.898 ± 0.15
UniProt P23610,0.94 ± 0.011,0.906 ± 0.053,1.03 ± 0.055,1.05 ± 0.027,1.06 ± 0.04,1.04 ± 0.059,0.995 ± 0.079,1.07 ± 0.068
UniProt P18206 and related entries,0.973 ± 0.036,0.951 ± 0.037,0.956 ± 0.03,0.943 ± 0.065,0.949 ± 0.061,0.936 ± 0.05,0.962 ± 0.02,0.938 ± 0.041
PYGB (UniProt P11216),1.11 ± 0.12,1.19 ± 0.21,1.2 ± 0.28,1.45 ± 0.5,1.71 ± 0.63,1.78 ± 0.69,1.75 ± 0.61,1.79 ± 0.67
LAMP1 (UniProt P11279),0.896 ± 0.081,0.879 ± 0.077,0.954 ± 0.028,0.885 ± 0.1,0.881 ± 0.11,0.904 ± 0.094,0.918 ± 0.062,0.885 ± 0.071
UniProt P16930 and related entries,1.02 ± 0.073,1.02 ± 0.055,0.921 ± 0.044,0.9 ± 0.082,0.892 ± 0.074,0.886 ± 0.056,0.8305 ± 0.0077,0.811 ± 0.075
UniProt P15813,1.03 ± 0.093,1.01 ± 0.12,1.03 ± 0.058,1.01 ± 0.048,0.993 ± 0.1,1.03 ± 0.073,0.996 ± 0.14,1.1 ± 0.15
UniProt P13473-2,0.893 ± 0.039,0.879 ± 0.044,0.863 ± 0.028,0.872 ± 0.038,0.871 ± 0.027,0.845 ± 0.032,0.83 ± 0.041,0.905 ± 0.043
PGAM1 (UniProt P18669),0.946 ± 0.072,0.946 ± 0.06,0.936 ± 0.076,0.888 ± 0.072,0.889 ± 0.088,0.88 ± 0.069,0.88 ± 0.087,0.856 ± 0.075
UQCRH (UniProt P07919),1.15 ± 0.29,1.1 ± 0.11,0.929 ± 0.43,0.888 ± 0.38,0.826 ± 0.38,0.868 ± 0.25,0.871 ± 0.25,1.2 ± 0.066
AHCY (UniProt P23526),1.03 ± 0.025,1.05 ± 0.076,0.944 ± 0.023,0.963 ± 0.07,0.965 ± 0.054,0.952 ± 0.072,0.912 ± 0.018,0.882 ± 0.039
UniProt P07437,0.927 ± 0.16,0.961 ± 0.13,0.95 ± 0.15,0.937 ± 0.14,1.03 ± 0.23,0.914 ± 0.17,0.954 ± 0.15,0.934 ± 0.17
AKR1A1 (UniProt P14550),0.93 ± 0.035,0.912 ± 0.034,0.888 ± 0.04,0.876 ± 0.037,0.873 ± 0.047,0.849 ± 0.04,0.831 ± 0.088,0.825 ± 0.08
ME2 (UniProt P23368),1.06 ± 0.083,1.07 ± 0.12,0.915 ± 0.057,0.98 ± 0.14,0.966 ± 0.096,0.931 ± 0.11,0.865 ± 0.013,0.827 ± 0.079
UniProt P17812,1.04 ± 0.085,1.03 ± 0.089,0.924 ± 0.05,0.916 ± 0.096,0.904 ± 0.077,0.883 ± 0.076,0.864 ± 0.041,0.819 ± 0.086
BPGM (UniProt P07738),1.02 ± 0.06,0.998 ± 0.017,0.991 ± 0.038,1 ± 0.041,0.959 ± 0.07,0.92 ± 0.082,0.946 ± 0.019,0.936 ± 0.035
GLUL (UniProt P15104),1.01 ± 0.011,1.03 ± 0.036,1.01 ± 0.028,1 ± 0.041,1.02 ± 0.07,1.03 ± 0.059,1.04 ± 0.073,0.993 ± 0.054
UniProt P20963 and related entries,0.993 ± 0.13,0.946 ± 0.095,1.12 ± 0.21,1.1 ± 0.2,1.08 ± 0.067,1.07 ± 0.093,1.11 ± 0.24,1.21 ± 0.26
UniProt P14735 and related entries,1.03 ± 0.071,1.07 ± 0.076,0.933 ± 0.027,0.969 ± 0.08,0.939 ± 0.069,0.956 ± 0.05,0.888 ± 0.03,0.861 ± 0.058
SLC9A1 (UniProt P19634),1.01 ± 0.075,1.02 ± 0.039,0.98 ± 0.059,1.03 ± 0.037,0.995 ± 0.024,1 ± 0.018,1.06 ± 0.071,1.03 ± 0.045
LGALS1 (UniProt P09382),0.889 ± 0.036,0.886 ± 0.037,0.885 ± 0.042,0.789 ± 0.055,0.813 ± 0.11,0.822 ± 0.067,0.821 ± 0.03,0.809 ± 0.055
IGF2R (UniProt P11717),0.974 ± 0.043,0.978 ± 0.023,0.998 ± 0.034,0.99 ± 0.064,1.01 ± 0.059,1 ± 0.068,1.03 ± 0.071,1.02 ± 0.1

# Single entries from the entries so far:
# NP40-soluble protein abundance (concentration: 0.5mM), UniProt P14735 and related entries is entered as 1.07 ± 0.076
# NP40-soluble protein abundance (concentration: 2mM), MCM3 (UniProt P25205) is entered as 1.01 ± 0.11
